Source: article PMC3901934, “CAS directly interacts with vinculin to control mechanosensing and focal adhesion dynamics” (Cellular and Molecular Life Sciences: CMLS, 2013)
Changes are numbered by the printed parent chain. Results are given in words; binding and its absence hold for the method and conditions named. In cells and extracts the contact can be indirect. A yes stands for co-enrichment or nearness to the bait. Other partners may have been found. Where a sequence is shown, tags or fusion partners need not be part of it.

By UniProt entry, the sequences of proteins in these tests, tags left out.
UniProt Q05397: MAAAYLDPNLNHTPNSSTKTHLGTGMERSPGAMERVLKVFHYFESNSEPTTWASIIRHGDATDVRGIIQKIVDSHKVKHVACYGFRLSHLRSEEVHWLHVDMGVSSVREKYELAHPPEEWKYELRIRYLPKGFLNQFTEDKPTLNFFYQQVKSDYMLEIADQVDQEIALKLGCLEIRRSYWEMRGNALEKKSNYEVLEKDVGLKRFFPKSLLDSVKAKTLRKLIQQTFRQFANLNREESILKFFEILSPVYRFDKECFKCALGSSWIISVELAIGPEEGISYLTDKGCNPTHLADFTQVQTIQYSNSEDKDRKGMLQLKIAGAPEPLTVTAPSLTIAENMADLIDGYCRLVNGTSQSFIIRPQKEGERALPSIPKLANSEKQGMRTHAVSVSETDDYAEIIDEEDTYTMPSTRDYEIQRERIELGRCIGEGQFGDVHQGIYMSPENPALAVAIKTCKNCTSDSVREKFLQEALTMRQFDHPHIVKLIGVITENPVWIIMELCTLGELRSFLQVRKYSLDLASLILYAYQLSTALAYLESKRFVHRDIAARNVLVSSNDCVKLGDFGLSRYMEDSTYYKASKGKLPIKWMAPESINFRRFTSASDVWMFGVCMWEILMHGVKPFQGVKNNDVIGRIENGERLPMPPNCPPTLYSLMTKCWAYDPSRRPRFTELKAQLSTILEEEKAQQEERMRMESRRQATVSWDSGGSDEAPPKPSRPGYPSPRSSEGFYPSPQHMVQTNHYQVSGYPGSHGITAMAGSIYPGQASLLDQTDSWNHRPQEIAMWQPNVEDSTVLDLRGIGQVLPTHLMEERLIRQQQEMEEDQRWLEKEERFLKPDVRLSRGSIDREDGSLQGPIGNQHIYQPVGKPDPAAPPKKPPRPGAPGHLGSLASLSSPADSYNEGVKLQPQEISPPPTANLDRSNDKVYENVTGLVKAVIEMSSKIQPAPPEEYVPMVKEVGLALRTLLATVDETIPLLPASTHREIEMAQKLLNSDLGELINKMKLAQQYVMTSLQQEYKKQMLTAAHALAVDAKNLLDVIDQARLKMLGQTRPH

Columns and labels:
[1] = biological target: T1, GST fused CAS SH3 domain, WT (UniProt Q61140); test: affinity purification with mass spectrometry; purified GST-CAS SH3 variants incubated with HeLa cell lysate (affinity chromatography); bound proteins separated by SDS-PAGE; peptide mass fingerprinting, MALDI TOF/TOF; only the target purified
T1 sequence: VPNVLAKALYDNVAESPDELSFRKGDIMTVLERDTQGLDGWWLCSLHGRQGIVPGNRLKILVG

[2] = biological target: T2, GST fused CAS SH3 domain, Y12F (UniProt Q61140); test: as above
T2 sequence: T1 sequence with Y10F

binding [1]: binds
binding [2]: binds
Substance: FAK (HeLa cell lysate) (from UniProt Q05397 1-1052)
